Measured values: US20240190958A1, “NOVEL ANTIBODY DRUG CONJUGATES WITH NOVEL NAPI2B ANTIBODIES, THERAPEUTIC METHODS AND USES THEREOF” (Tubulis GmbH, priority 2022, published 2024)
Substitutions are numbered along the chain they refer to. These are yes or no findings as the source states them, for the method shown. Some results given as binding are weak or reduced against the parent protein; the word gives no strength. For some of these results: Tags and fused reporters may be left off the sequences shown. Each block holds one binder with its values, some of them ahead of it.

Assays:
[1] = biological target: T1, purified recombinant human Napi2b antigen consisting of Napi2b-extracellular-loop2 expressed as Fc-fusion-6-His-tagged protein (human) (UniProt O95436); assay: ELISA on plates coated with 1 µg/mL recombinant human Napi2b extracellular-loop2 Fc-6-His antigen, HRP anti-human kappa light chain detection
T1 sequence: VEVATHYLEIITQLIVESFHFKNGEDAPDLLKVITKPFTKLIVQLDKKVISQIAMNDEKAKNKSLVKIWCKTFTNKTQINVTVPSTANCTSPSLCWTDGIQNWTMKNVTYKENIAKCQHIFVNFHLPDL

[2] = biological target: human NaPi2b on NaPi2b-positive cell lines OVCAR-3 and HCC-78 (human) (UniProt O95436); assay: flow cytometry on NaPi2b-positive OVCAR-3 cells, Alexa-dye-labeled anti-human IgG H+L secondary antibody, MFI ratio normalized to the non-specific binding control
[3] = biological target: human NaPi2b on NaPi2b-positive cell lines OVCAR-3 and HCC-78 (human) (UniProt O95436); assay: flow cytometry on NaPi2b-positive HCC-78 cells, Alexa-dye-labeled anti-human IgG H+L secondary antibody, MFI ratio normalized to the non-specific binding control
[4] = biological target: human NaPi2b on NaPi2b-positive cell lines OVCAR-3 and HCC-78 (human) (UniProt O95436); assay: flow cytometry on OVCAR-3 and HCC-78 cells

B1: AV-15 antibody (antibody, human IgG1, kappa, L234A L235A, V domains shown)
VH: EVQLVQSGAEVVKPGASVKMSCKASGYTFTGYNIHWVKQAPGQGLEWIGAIYPGNGDTSYKQKFRGRATLTADTSTSTVYMELSSLRSEDSAVYYCARGETARATFAYWGQGTLVTVSS
VL: DIQMTQSPSSLSASVGDRVTITCSASQDIGKFLNWYQQKPGKTVKVLIYYSSSLYSGVPSRFSGSGSGTDYTLTISSLQPEDFATYYCQQYSKVPLTFGQGTKLELKR
binding [1]: binds

B2: Upifitamab (antibody, V domains shown)
VH: B1 VH
VL: B1 VL with K31N, S51T, V94L
binding [2]: binds
binding [3]: binds
binding [4]: binds

B5: AV-29 antibody (antibody, human IgG1, kappa, L234A L235A, V domains shown)
VH: B1 VH with H35L, D57G, L70I, T101I
VL: B1 VL with K31N, S51A, V94L
binding [1]: binds

Continued, values first:

binding [1]: binds
B3: AV-18 antibody (antibody, human IgG1, kappa, L234A L235A, V domains shown)
VH: B1 VH with N33I, N55S, D57A
VL: B1 VL with K31N, S51T, V94L

binding [1]: binds
B4: AV-21 antibody (antibody, human IgG1, kappa, L234A L235A, V domains shown)
VH: B1 VH with Y32Q, N33I, Y52S, G56S, D57G
VL: B1 VL with K31N, S51T, V94L
